# Reference: the supplement of paper PMC6411743
# ± gives the standard deviation of the averaged measurements. The list shows a part of the results.
# Tests used:
# Assay in all cases: NP40-soluble protein abundance relative to vehicle (solubility fold change) (ratio); higher = more soluble protein in presence of GTP
# UniProt Q02040 = target: T1, UniProt Q02040
# T1 sequence (whole entry): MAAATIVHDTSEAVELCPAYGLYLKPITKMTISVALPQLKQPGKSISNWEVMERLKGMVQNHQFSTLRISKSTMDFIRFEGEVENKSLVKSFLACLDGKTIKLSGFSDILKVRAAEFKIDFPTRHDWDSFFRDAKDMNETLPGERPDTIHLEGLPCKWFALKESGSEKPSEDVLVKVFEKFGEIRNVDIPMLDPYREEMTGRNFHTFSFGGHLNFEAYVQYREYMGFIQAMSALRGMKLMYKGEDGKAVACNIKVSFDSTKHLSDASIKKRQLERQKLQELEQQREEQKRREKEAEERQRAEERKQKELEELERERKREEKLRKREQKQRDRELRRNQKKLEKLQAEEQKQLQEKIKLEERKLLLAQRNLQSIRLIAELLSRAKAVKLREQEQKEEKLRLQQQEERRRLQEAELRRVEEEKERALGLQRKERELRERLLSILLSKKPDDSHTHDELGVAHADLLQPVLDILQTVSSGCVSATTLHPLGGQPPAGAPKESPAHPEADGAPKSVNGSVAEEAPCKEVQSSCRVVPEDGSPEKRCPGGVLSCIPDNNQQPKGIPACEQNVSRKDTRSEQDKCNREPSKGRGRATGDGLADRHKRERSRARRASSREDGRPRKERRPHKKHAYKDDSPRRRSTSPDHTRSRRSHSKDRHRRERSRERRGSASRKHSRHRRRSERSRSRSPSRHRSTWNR
# Method in brief: (§1)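 Each value is a fold change relative to the detergent-processed vehicle, calculated per replicate from vsn-normalised intensities. Jurkat crude lysate received eight concentrations (0.1 to 10 mM) for 10 min at room temperature and 3 min at 37 °C, then was solubilised in 0.8% NP40 with benzonase (60 min, 4 °C). The ultracentrifuged supernatant was TMT-labelled and run by LC-MS/MS in three independent experiments.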
# [1] = target: T2, UniProt Q08170 and related entries
# T2 sequence (whole entry): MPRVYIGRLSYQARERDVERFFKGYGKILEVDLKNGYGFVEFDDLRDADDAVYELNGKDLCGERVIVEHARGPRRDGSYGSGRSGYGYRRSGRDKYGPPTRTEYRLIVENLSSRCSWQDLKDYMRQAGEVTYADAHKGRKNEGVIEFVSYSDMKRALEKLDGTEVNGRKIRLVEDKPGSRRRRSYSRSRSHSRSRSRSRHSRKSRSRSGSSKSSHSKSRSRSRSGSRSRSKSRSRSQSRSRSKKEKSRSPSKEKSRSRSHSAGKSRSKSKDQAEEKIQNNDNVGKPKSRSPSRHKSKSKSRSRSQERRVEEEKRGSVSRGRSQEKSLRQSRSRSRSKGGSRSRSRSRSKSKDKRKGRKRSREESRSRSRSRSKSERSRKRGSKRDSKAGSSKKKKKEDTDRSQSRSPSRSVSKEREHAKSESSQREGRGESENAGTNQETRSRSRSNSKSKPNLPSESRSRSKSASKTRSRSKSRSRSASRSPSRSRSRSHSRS
# Method in brief: as §1
# UniProt Q12974 = target: T3, UniProt Q12974
# T3 sequence (whole entry): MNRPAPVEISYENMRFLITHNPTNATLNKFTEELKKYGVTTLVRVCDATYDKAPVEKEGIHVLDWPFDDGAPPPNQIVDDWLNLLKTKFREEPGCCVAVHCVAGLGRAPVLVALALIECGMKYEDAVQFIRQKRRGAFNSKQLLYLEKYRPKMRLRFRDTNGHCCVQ
# Method in brief: as §1
# [2] = target: T4, UniProt Q13137 and related entries
# T4 sequence (whole entry): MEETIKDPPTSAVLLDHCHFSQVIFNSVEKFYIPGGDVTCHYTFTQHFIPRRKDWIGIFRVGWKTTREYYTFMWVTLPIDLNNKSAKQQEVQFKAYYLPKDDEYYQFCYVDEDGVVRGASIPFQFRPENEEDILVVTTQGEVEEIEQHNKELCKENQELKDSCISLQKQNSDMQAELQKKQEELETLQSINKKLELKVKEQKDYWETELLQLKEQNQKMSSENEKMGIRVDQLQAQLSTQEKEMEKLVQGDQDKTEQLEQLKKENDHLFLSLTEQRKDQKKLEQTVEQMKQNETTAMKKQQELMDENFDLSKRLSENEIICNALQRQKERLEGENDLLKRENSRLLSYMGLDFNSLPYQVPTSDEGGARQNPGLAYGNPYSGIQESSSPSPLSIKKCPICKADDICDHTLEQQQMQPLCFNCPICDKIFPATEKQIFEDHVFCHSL
# Method in brief: as §1
# [3] = target: T5, UniProt Q13438-2|Q13438-3|Q13438-5|Q13438-6|Q13438-7
# T5 sequence (whole entry): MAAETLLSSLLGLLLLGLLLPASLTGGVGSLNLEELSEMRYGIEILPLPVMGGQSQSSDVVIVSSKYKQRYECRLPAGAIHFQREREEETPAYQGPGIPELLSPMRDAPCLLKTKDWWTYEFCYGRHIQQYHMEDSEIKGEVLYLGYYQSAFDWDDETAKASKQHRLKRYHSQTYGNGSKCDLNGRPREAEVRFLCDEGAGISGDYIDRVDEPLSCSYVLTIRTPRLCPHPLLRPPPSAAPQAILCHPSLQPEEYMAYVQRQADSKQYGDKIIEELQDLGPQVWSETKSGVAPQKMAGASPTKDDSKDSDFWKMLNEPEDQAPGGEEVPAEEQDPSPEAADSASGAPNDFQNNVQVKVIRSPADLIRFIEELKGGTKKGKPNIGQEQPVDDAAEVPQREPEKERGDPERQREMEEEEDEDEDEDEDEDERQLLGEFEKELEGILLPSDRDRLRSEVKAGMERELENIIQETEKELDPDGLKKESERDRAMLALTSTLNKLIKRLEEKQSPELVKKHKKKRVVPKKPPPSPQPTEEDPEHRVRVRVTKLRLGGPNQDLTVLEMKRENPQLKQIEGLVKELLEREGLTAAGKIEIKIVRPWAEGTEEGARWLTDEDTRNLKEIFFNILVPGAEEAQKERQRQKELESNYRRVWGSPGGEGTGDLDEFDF
# Method in brief: as §1
# [4] = target: T6, UniProt Q13608 and related entries
# T6 sequence (whole entry): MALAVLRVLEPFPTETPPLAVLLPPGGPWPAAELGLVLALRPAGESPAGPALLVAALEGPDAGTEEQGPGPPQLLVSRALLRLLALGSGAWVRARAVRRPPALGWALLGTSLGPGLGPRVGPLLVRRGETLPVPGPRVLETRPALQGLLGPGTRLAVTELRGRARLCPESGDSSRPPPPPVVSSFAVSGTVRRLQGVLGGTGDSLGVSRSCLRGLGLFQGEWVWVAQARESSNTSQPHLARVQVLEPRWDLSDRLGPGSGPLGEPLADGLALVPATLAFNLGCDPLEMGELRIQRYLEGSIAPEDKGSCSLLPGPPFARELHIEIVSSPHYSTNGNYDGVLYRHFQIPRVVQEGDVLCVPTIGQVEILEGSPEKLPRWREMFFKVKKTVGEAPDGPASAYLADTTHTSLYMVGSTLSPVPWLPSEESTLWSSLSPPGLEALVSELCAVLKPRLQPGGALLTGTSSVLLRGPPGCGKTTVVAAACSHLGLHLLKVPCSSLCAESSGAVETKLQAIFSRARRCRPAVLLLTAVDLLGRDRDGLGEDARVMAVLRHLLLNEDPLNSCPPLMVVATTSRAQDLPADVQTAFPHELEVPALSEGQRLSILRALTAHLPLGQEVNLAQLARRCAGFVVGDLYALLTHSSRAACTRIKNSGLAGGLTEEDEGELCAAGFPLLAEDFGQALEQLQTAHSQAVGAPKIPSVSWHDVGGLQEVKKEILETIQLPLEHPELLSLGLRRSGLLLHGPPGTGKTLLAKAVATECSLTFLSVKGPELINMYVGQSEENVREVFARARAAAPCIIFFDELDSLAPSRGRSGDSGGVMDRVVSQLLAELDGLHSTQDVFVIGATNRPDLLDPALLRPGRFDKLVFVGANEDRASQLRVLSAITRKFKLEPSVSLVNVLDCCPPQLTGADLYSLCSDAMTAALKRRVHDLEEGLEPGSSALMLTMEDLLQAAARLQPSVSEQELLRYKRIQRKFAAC
# Method in brief: as §1
compound,measurement,setting,value
Nc1nc2c(ncn2[C@@H]2O[C@H](COP(=O)(O)OP(=O)(O)OP(=O)(O)O)[C@@H](O)[C@H]2O)c(=O)[nH]1 [guanosine triphosphate],NP40-soluble protein abundance,UniProt Q02040; concentration: 0.1mM,1.05 ± 0.093
same,NP40-soluble protein abundance,UniProt Q02040; concentration: 0.5mM,1.1 ± 0.025
same,NP40-soluble protein abundance,UniProt Q02040; concentration: 1mM,1.09 ± 0.086
same,NP40-soluble protein abundance,UniProt Q02040; concentration: 2mM,1.23 ± 0.036
same,NP40-soluble protein abundance,UniProt Q02040; concentration: 4mM,1.31 ± 0.071
same,NP40-soluble protein abundance,UniProt Q02040; concentration: 6mM,1.36 ± 0.07
same,NP40-soluble protein abundance,UniProt Q02040; concentration: 8mM,1.39 ± 0.071
same,NP40-soluble protein abundance,UniProt Q02040; concentration: 10mM,1.48 ± 0.072
same,NP40-soluble protein abundance,[1]; concentration: 0.1mM,0.928 ± 0.042
same,NP40-soluble protein abundance,[1]; concentration: 0.5mM,1.23 ± 0.055
same,NP40-soluble protein abundance,[1]; concentration: 1mM,1.27 ± 0.028
same,NP40-soluble protein abundance,[1]; concentration: 2mM,1.15 ± 0.052
same,NP40-soluble protein abundance,[1]; concentration: 4mM,0.94 ± 0.034
same,NP40-soluble protein abundance,[1]; concentration: 6mM,1.09 ± 0.042
same,NP40-soluble protein abundance,[1]; concentration: 8mM,1.2 ± 0.053
same,NP40-soluble protein abundance,[1]; concentration: 10mM,1.08 ± 0.035
same,NP40-soluble protein abundance,UniProt Q12974; concentration: 0.1mM,0.958 ± 0.018
same,NP40-soluble protein abundance,UniProt Q12974; concentration: 0.5mM,0.957 ± 0.01
same,NP40-soluble protein abundance,UniProt Q12974; concentration: 1mM,0.896 ± 0.03
same,NP40-soluble protein abundance,UniProt Q12974; concentration: 2mM,0.902 ± 0.042
same,NP40-soluble protein abundance,UniProt Q12974; concentration: 4mM,0.875 ± 0.083
same,NP40-soluble protein abundance,UniProt Q12974; concentration: 6mM,0.866 ± 0.024
same,NP40-soluble protein abundance,UniProt Q12974; concentration: 8mM,0.821 ± 0.069
same,NP40-soluble protein abundance,UniProt Q12974; concentration: 10mM,0.84 ± 0.072
same,NP40-soluble protein abundance,[2]; concentration: 0.1mM,0.973 ± 0.053
same,NP40-soluble protein abundance,[2]; concentration: 0.5mM,0.941 ± 0.07
same,NP40-soluble protein abundance,[2]; concentration: 1mM,0.956 ± 0.098
same,NP40-soluble protein abundance,[2]; concentration: 2mM,0.912 ± 0.09
same,NP40-soluble protein abundance,[2]; concentration: 4mM,0.925 ± 0.097
same,NP40-soluble protein abundance,[2]; concentration: 6mM,0.914 ± 0.083
same,NP40-soluble protein abundance,[2]; concentration: 8mM,0.979 ± 0.066
same,NP40-soluble protein abundance,[2]; concentration: 10mM,0.936 ± 0.08
same,NP40-soluble protein abundance,[3]; concentration: 0.1mM,0.96 ± 0.024
same,NP40-soluble protein abundance,[3]; concentration: 0.5mM,0.965 ± 0.013
same,NP40-soluble protein abundance,[3]; concentration: 1mM,0.989 ± 0.028
same,NP40-soluble protein abundance,[3]; concentration: 2mM,0.978 ± 0.075
same,NP40-soluble protein abundance,[3]; concentration: 4mM,0.968 ± 0.012
same,NP40-soluble protein abundance,[3]; concentration: 6mM,0.957 ± 0.025
same,NP40-soluble protein abundance,[3]; concentration: 8mM,1.02 ± 0.076
same,NP40-soluble protein abundance,[3]; concentration: 10mM,1 ± 0.087
same,NP40-soluble protein abundance,[4]; concentration: 0.1mM,1.17 ± 0.11
same,NP40-soluble protein abundance,[4]; concentration: 0.5mM,1.24 ± 0.13
same,NP40-soluble protein abundance,[4]; concentration: 1mM,1.14 ± 0.19
same,NP40-soluble protein abundance,[4]; concentration: 2mM,1.22 ± 0.16
same,NP40-soluble protein abundance,[4]; concentration: 4mM,1.1 ± 0.1
same,NP40-soluble protein abundance,[4]; concentration: 6mM,1.17 ± 0.21
same,NP40-soluble protein abundance,[4]; concentration: 8mM,1.11 ± 0.12
same,NP40-soluble protein abundance,[4]; concentration: 10mM,1.23 ± 0.16

# 13 consecutive entries out of the list so far, quoted:
compound,measurement,setting,value
Nc1nc2c(ncn2[C@@H]2O[C@H](COP(=O)(O)OP(=O)(O)OP(=O)(O)O)[C@@H](O)[C@H]2O)c(=O)[nH]1 [guanosine triphosphate],NP40-soluble protein abundance,UniProt Q12974; concentration: 10mM,0.84 ± 0.072
same,NP40-soluble protein abundance,[2]; concentration: 0.1mM,0.973 ± 0.053
same,NP40-soluble protein abundance,[2]; concentration: 0.5mM,0.941 ± 0.07
same,NP40-soluble protein abundance,[2]; concentration: 1mM,0.956 ± 0.098
same,NP40-soluble protein abundance,[2]; concentration: 2mM,0.912 ± 0.09
same,NP40-soluble protein abundance,[2]; concentration: 4mM,0.925 ± 0.097
same,NP40-soluble protein abundance,[2]; concentration: 6mM,0.914 ± 0.083
same,NP40-soluble protein abundance,[2]; concentration: 8mM,0.979 ± 0.066
same,NP40-soluble protein abundance,[2]; concentration: 10mM,0.936 ± 0.08
same,NP40-soluble protein abundance,[3]; concentration: 0.1mM,0.96 ± 0.024
same,NP40-soluble protein abundance,[3]; concentration: 0.5mM,0.965 ± 0.013
same,NP40-soluble protein abundance,[3]; concentration: 1mM,0.989 ± 0.028
same,NP40-soluble protein abundance,[3]; concentration: 2mM,0.978 ± 0.075
